Measurements: patent US8778947B2 (Intermune, Inc., priority 2012, dated 2014)

Details: human, in vivo

AUC0-∞ higher with coadministration of ciprofloxacin on Day 6/7 compared with Day 1/2: approximately 78%
Compound: Cc1ccc(=O)n(-c2ccccc2)c1 [Pirfenidone, 5-methyl-1-phenyl-2-(1H)-pyridone]
